# Reference: PubChem BioAssay (NCATS)
# Inconclusive results, whose numbers are uncertain, are shown with a selection of clear calls. Potencies beside an inconclusive call are fits to weak or partial responses and may not hold up. Calls of active or inactive are those of the source. Calls come from the whole dose curve; as a rule, active = well fitted activation curve with a large enough effect; inconclusive = small, poorly fitted or top-dose-only effect, or another doubt; inactive = no such curve, though single readings can be large or run the other way.
# Molecular target: Rap guanine nucleotide exchange factor 3 (Homo sapiens) (UniProt O95398)
# Assay: Counterscreen qHTS for agonist of cAMP-regulated guanine nucleotide exchange factor 3 (EPAC1) (AID 1645889); note: nearly all actives have a fitted effect of over 40% in size; for activation: % of control where 0% means no effect
# Conditions: EPAC1 Rap1B-BODIPY-GDP exchange, fluorescence; activation: at 154 µM (top of the series) unless noted
# Summary of the method: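 Rap1B-BODIPY-GDP 250 nM + GDP 50 uM; cpds 7-pt, final 9.74 nM–152 uM (activator mode) or from 7.32 nM upwards (inhibitor mode); RT; FI 480/540 nm at 5 and 30 min, then ± cAMP, reread.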
# Potency is the fitted concentration of half-maximal effect.
Compound,Potency,activation
CN(C(=O)COC(=O)/C=C/c1ccc2c(c1)OCO2)c1c(N)n(Cc2ccccc2)c(=O)[nH]c1=O,inactive,–
O=C(OCC(=O)N1CCCC1=O)c1cc(Cl)ccc1O,–,inconclusive: 25.4% [activator]
O=C(COC(=O)Cc1ccc(Cl)cc1)Nc1ccc2[nH]c(=O)[nH]c2c1,–,inactive: -0.761% [at 30.8 µM]
Cc1cc(C)c(OCC(=O)Nc2ccccc2N2CCCCC2)c(C)c1,–,inconclusive: 30.1% [activator]
Cc1ccc(CNC(=O)C(=O)NCCC2CCCCN2S(=O)(=O)c2cccs2)cc1 (configuration not stated),–,inactive: 20.6% [at 30.8 µM]
c1ccc(-c2cn3nc(-c4ccccc4)c(-c4ccccc4)nc3n2)cc1,–,inactive: 16.7% [at 30.8 µM]
CC(C)CNC(=O)c1c(-c2ccccc2)c(-c2ccccc2)nn(C)c1=O,inactive,–
CCc1nnc(NS(=O)(=O)c2ccc(NCc3cc(Cl)ccc3O)cc2)s1,–,inactive: 11.7% [at 30.8 µM]
CCSc1nc2ccccc2c(=O)n1C1CCOC(C)(C)C1 (configuration not stated),"inconclusive: 7.08 µM [activator, partial curve, poor fit]",–
Cc1cccc(C)c1Nc1c(-c2ccccc2F)nc2cccc(C)n12,"inconclusive: 7.94 µM [activator, partial curve, poor fit]",–
Cc1cc(C)c(-c2c(N)cc(Br)cc2Br)c(N)c1,"inconclusive: 22.4 µM [activator, partial curve, poor fit]",–
CC(=O)/C(=C/N(C)C)Sc1ccc(C)cc1,–,inconclusive: 21.5% [activator]
